This is an account of results in PMC7717877.

The chains behind the UniProt entries cited, without tags or fusion partners.
UniProt O35732: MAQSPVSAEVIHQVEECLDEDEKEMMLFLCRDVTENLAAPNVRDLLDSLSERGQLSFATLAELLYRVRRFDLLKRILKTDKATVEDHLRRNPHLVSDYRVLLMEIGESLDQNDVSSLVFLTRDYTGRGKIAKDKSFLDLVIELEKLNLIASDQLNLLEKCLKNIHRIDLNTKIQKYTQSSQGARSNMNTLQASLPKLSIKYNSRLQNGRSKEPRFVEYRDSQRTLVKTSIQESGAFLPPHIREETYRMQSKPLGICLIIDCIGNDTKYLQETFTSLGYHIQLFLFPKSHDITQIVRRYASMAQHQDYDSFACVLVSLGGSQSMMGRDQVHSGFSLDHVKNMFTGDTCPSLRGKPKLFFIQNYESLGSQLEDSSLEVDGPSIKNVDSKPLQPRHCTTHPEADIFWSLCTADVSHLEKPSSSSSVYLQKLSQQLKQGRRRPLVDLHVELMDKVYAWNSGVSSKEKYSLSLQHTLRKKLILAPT

No constants are given. Whether binding was seen depends on the method and setting. In cells and extracts the contact can be indirect. Some results given as binding are weak or reduced against the parent protein; the word gives no strength.

The target of the test is FLICE-like inhibitory protein (mouse (endogenous in RAW264.7)) (UniProt O35732). As to the kind of experiment: co-IP; endogenous co-IP from lysates of RAW264.7 macrophages (control, LPS + ATP + si-NC or LPS + ATP + si-hnRNPK groups); precipitated with antibodies against FLIP and protein G-sepharose beads, washed with PBS, western blot.

Regarding “Heterogeneous nuclear ribonucleoprotein K (from UniProt P61979 1-463)”, the binding result is on record as “binds”.
